Measurements reported in PubChem BioAssay AID1159584 (Peter MacCallum Cancer Centre, 2016)

Screen: 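Genes that CDH1-null MCF10A cells selectively depend on to survive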 (primary screen)
Cell system: human MCF10A breast epithelial cells, parental and CDH1-null
Reagent: siRNA against human genes
Measurement: 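Cell viability by CellTiter-Glo ATP luminescence, each line scaled to the mean of mock wells across plates, then CDH1-null over parental ratio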
Reading the numbers: CDH1-null / parental viability ratio: higher = CDH1-null cells survive relatively better than parental; CDH1-null viability vs mock: higher = more viable CDH1-null cells; parental viability vs mock: higher = more viable parental cells
In all, the deposit lists about 18,000 reagents; below is an unselected part. Reagents against one gene are numbered here. Not stated in the record: the amount of reagent, the time to read-out.

target gene	siRNA no.	CDH1-null / parental viability ratio	CDH1-null viability vs mock (fraction of mock)	parental viability vs mock (fraction of mock)
BCLAF3	1	1.13	1.06	0.94
DENND1B	1	1.03	0.78	0.76
DENND1B	2	1.01	0.85	0.84
TLE5	1	1	0.75	0.75
NID2	1	0.83	0.6	0.72
IPMK	1	0.9	0.86	0.96
RAX2	1	1.42	0.57	0.4
HMHB1	1	1.21	0.8	0.66
IGFLR1	1	1.39	0.82	0.59
SCUBE1	1	1.12	0.92	0.82
FADS2	1	0.84	0.64	0.76
PDIA4	1	1	1.02	1.02
PNLIPRP2	1	1.11	0.84	0.76
CD96	1	1.07	0.98	0.92
S100PBP	1	1.1	0.46	0.42
PIF1	1	1.13	0.6	0.53
LAMA2	1	0.96	0.46	0.48
HVCN1	1	1.34	1.1	0.82
SNX22	1	1.18	0.86	0.73
SSX3	1	1.14	1.05	0.92
SLFNL1	1	0.97	0.9	0.93
ABHD14B	1	0.9	0.9	1
PPP1R9A	1	0.74	0.74	1
EVI2A	1	1.86	1.06	0.57
ARL1	1	0.98	0.86	0.88
MASTL	1	0.87	0.71	0.82
KLHL31	1	0.96	0.79	0.82
HS1BP3	1	1.02	0.85	0.83
ATF6B	1	0.98	0.84	0.86
PRND	1	1.28	0.46	0.36
BDH2	1	0.98	1	1.02
DZIP3	1	0.8	0.52	0.65
TUBA3E	1	1.4	0.56	0.4
B4GALT2	1	0.85	0.64	0.75

In a second layout: results already given
IGFLR1
- CDH1-null / parental viability ratio: 1.39
- CDH1-null viability vs mock (fraction of mock): 0.82
- parental viability vs mock (fraction of mock): 0.59

SCUBE1
- CDH1-null / parental viability ratio: 1.12
- CDH1-null viability vs mock (fraction of mock): 0.92
- parental viability vs mock (fraction of mock): 0.82

FADS2
- CDH1-null / parental viability ratio: 0.84
- CDH1-null viability vs mock (fraction of mock): 0.64
- parental viability vs mock (fraction of mock): 0.76

PDIA4
- CDH1-null / parental viability ratio: 1
- CDH1-null viability vs mock (fraction of mock): 1.02
- parental viability vs mock (fraction of mock): 1.02

PNLIPRP2
- CDH1-null / parental viability ratio: 1.11
- CDH1-null viability vs mock (fraction of mock): 0.84
- parental viability vs mock (fraction of mock): 0.76

CD96
- CDH1-null / parental viability ratio: 1.07
- CDH1-null viability vs mock (fraction of mock): 0.98
- parental viability vs mock (fraction of mock): 0.92

S100PBP
- CDH1-null / parental viability ratio: 1.1
- CDH1-null viability vs mock (fraction of mock): 0.46
- parental viability vs mock (fraction of mock): 0.42

PIF1
- CDH1-null / parental viability ratio: 1.13
- CDH1-null viability vs mock (fraction of mock): 0.6
- parental viability vs mock (fraction of mock): 0.53

LAMA2
- CDH1-null / parental viability ratio: 0.96
- CDH1-null viability vs mock (fraction of mock): 0.46
- parental viability vs mock (fraction of mock): 0.48

HVCN1
- CDH1-null / parental viability ratio: 1.34
- CDH1-null viability vs mock (fraction of mock): 1.1
- parental viability vs mock (fraction of mock): 0.82

Continued.
target gene	siRNA no.	CDH1-null / parental viability ratio	CDH1-null viability vs mock (fraction of mock)	parental viability vs mock (fraction of mock)
GUCY1A1	1	1.16	0.86	0.74
PMFBP1	1	1.11	0.94	0.85
SPAG6	1	0.9	0.8	0.89
NUDT21	1	0.98	0.57	0.58
CCDC171	1	0.91	0.58	0.64
HNRNPH2	1	1.24	1.04	0.84
CIB4	1	1.1	0.97	0.88
ARV1	1	1.02	0.88	0.86
ZNF608	1	1.37	0.82	0.6
ARGLU1	1	0.84	0.74	0.88
FCRL3	1	0.89	0.71	0.8
PHF21A	1	0.96	0.96	1
CLCA1	1	1.1	0.99	0.9
SYTL3	1	0.84	0.76	0.9
POU3F4	1	0.89	0.39	0.44
SBF2	1	0.96	0.53	0.55
WDR44	1	2.19	0.7	0.32
ZFP41	1	1.1	1.08	0.98
C1orf56	1	0.79	0.61	0.77
TUBB8	1	1.26	0.68	0.54
ERO1A	1	1.09	1.02	0.94
SLC43A3	1	1.23	1.01	0.82
MIER1	1	1.06	0.68	0.64
COL22A1	1	0.91	0.79	0.87
GNRH2	1	1.39	0.86	0.62
OR52A4P	1	0.96	0.94	0.98
HSPE1	1	1.05	0.92	0.88
LDB2	1	1.03	0.75	0.73
C11orf68	1	1.62	0.55	0.34
TTLL6	1	0.75	0.5	0.67
FGF14	1	1.03	0.68	0.66
TSN	1	1.15	1.24	1.08
ZDHHC13	1	0.93	0.76	0.82
NOL3	1	1.06	0.36	0.34
